The text below walks through data of paper PMC4596637.

Amino acid sequences for entries named in this document (tags omitted).
UniProt Q1L8J7: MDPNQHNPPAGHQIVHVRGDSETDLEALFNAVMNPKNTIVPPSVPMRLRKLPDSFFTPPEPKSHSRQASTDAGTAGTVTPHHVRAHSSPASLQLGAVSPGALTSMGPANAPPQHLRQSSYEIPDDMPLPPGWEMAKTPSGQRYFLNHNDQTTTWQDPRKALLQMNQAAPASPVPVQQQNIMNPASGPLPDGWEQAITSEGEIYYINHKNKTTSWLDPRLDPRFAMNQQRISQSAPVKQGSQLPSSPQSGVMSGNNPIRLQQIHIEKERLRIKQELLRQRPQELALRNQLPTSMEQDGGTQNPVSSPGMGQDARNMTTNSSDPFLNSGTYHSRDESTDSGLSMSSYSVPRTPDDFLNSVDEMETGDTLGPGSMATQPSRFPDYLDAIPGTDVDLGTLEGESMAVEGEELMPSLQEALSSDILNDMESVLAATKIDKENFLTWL

The assay deals with T1, zebrafish Amotl2a fused to the Gal4 DNA-binding domain (pGBKT7) (zebrafish) (UniProt A1YB07).
T1 sequence: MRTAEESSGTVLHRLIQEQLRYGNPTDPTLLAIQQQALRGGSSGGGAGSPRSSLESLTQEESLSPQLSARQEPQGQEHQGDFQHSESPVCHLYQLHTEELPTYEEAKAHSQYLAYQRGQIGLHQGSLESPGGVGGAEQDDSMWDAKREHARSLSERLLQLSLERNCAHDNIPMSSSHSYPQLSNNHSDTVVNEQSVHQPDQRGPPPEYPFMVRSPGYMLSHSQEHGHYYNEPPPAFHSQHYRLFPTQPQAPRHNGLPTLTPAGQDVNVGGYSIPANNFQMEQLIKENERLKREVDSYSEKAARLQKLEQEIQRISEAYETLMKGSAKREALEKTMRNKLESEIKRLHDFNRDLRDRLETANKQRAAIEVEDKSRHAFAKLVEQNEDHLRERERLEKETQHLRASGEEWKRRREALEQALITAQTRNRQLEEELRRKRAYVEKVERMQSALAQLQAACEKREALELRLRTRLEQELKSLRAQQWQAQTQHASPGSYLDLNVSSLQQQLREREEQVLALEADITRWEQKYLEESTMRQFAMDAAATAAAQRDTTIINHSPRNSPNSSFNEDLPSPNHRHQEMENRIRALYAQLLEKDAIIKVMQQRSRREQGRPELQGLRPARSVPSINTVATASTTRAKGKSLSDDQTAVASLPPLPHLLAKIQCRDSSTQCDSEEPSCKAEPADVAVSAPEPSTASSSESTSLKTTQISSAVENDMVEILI
Kind of assay: two-hybrid; Y2H assay, Matchmaker system, AH109 yeast; Amotl2a forms fused to the Gal4 DNA-binding domain (pGBKT7), Yap1/Taz forms fused to the Gal4 activation domain (pGADT7); patched on selective plates lacking histidine, grown 3-4 days.

Results are given in words; binding and its absence hold for the method and conditions named. Some binding calls cover weakened binding; strength is not graded here. Tags and fused reporters may be left off the sequences shown.

On to “zebrafish Yap1 fused to the Gal4 activation domain (pGADT7) (from UniProt Q1L8J7 1-442)”, for which the binding entry is on record as “binds”.
